From article doi:10.1101/2025.06.02.657400
Results are given in words; binding and its absence hold for the method and conditions named. Binding seen in cells or lysates may run through a third protein. Some entries that bind do so weakly or less than the wild type.

Chains of the proteins cited; added tags and fusions are not shown.
UniProt Q7Z434: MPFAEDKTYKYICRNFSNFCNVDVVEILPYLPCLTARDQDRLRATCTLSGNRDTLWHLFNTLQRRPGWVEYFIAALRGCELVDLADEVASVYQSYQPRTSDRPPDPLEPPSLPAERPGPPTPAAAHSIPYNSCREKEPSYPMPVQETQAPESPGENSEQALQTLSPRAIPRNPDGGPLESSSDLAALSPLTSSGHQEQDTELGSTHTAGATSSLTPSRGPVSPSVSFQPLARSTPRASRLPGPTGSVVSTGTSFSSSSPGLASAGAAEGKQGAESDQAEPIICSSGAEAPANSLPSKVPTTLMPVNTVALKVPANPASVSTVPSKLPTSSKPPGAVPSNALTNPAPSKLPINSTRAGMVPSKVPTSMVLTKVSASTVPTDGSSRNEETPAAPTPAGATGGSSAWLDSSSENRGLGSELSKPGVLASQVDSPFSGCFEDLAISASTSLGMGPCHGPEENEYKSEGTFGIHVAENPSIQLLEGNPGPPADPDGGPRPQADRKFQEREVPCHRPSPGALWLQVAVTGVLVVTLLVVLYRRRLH

Biological target: mitochondrial antiviral signaling protein (MAVS) (human (endogenous in PBMCs)) (UniProt Q7Z434)
Test: co-IP

B1: phosphorylated IRF3 (protein, UniProt Q14653 1-427)
chain: MGTPKPRILPWLVSQLDLGQLEGVAWVNKSRTRFRIPWKHGLRQDAQQEDFGIFQAWAEATGAYVPGRDKPDLPTWKRNFRSALNRKEGLRLAEDRSKDPHDPHKIYEFVNSGVGDFSQPDTSPDTNGGGSTSDTQEDILDELLGNMVLAPLPDPGPPSLAVAPEPCPQPLRSPSLDNPTPFPNLGPSENPLKRLLVPGEEWEFEVTAFYRGRQVFQQTISCPEGLRLVGSEVGDRTLPGWPVTLPDPGMSLTDRGVMSYVRHVLSCLGGGLALWRAGQWLWAQRLGHCHTYWAVSEELLPNSGHGPDGEVPKDKEGGVFDLGPFIVDLITFTEGSGRSPRYALWFCVGESWPQDQPWTKRLVMVKVVPTCLRALVEMARVGGASSLENTVDLHISNSHPLSLTSDQYKAYLQDLVEGMDFQGPGES
modifications: phosphorylated (site not given)
For B1, the binding was “binds”.
